Assay results as given in the supplement of paper PMC8612539.
In brackets after ≈: the same amount, converted by molar mass. Further values from the same series stand in other lists.

Tested on: Escherichia coli
Experiment: minimum inhibitory concentration (MIC)
Experimental: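 Broth microdilution MIC (Sensititre BOPO7F bovine plate, CLSI methods) of 19 antimicrobials against field isolates of P. multocida, M. haemolytica, H. somni (deep nasopharyngeal swabs) and E. coli, Enterococcus spp. (rectal swabs) from weaned dairy heifers. Incubation 16-24 h at 35 C. MIC is the lowest concentration preventing visible growth. Values with <= or > lie at the tested range limits. Trimethoprim-sulfamethoxazole is given as the trimethoprim component of a 1:19 mixture.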

C=C[C@]1(C)C[C@@H](OC(=O)CSCCN(CC)CC)[C@]2(C)[C@H](C)CC[C@]3(CCC(=O)[C@H]32)[C@@H](C)[C@@H]1O [Tiamulin]
Settings | minimum inhibitory concentration [µg/mL]
isolate (source animal id): 221 | > 32
isolate (source animal id): 222 | 32 (≈ 64.8 µM)
isolate (source animal id): 223 | 32 (≈ 64.8 µM)
isolate (source animal id): 224 | > 32
isolate (source animal id): 225 | > 32
isolate (source animal id): 226 | > 32
isolate (source animal id): 227 | 32 (≈ 64.8 µM)
isolate (source animal id): 228 | 16 (≈ 32.4 µM)
isolate (source animal id): 229 | > 32
isolate (source animal id): 230 | > 32
isolate (source animal id): 231 | > 32
isolate (source animal id): 232 | > 32
isolate (source animal id): 233 | > 32
isolate (source animal id): 234 | > 32
isolate (source animal id): 235 | > 32
isolate (source animal id): 236 | > 32
isolate (source animal id): 237 | > 32
isolate (source animal id): 238 | > 32
isolate (source animal id): 239 | > 32
isolate (source animal id): 240 | > 32
isolate (source animal id): 241 | > 32
isolate (source animal id): 242 | > 32
isolate (source animal id): 243 | > 32
isolate (source animal id): 244 | > 32
isolate (source animal id): 245 | > 32
isolate (source animal id): 246 | > 32
isolate (source animal id): 247 | 16 (≈ 32.4 µM)
isolate (source animal id): 248 | > 32
isolate (source animal id): 249 | > 32
isolate (source animal id): 250 | > 32
isolate (source animal id): 251 | > 32
isolate (source animal id): 252 | > 32
isolate (source animal id): 253 | > 32
isolate (source animal id): 254 | > 32
isolate (source animal id): 255 | > 32
isolate (source animal id): 256 | > 32
isolate (source animal id): 257 | > 32
isolate (source animal id): 258 | > 32
isolate (source animal id): 259 | > 32
isolate (source animal id): 260 | > 32
isolate (source animal id): 261 | > 32
isolate (source animal id): 262 | > 32
isolate (source animal id): 263 | > 32
isolate (source animal id): 264 | > 32
isolate (source animal id): 265 | > 32
isolate (source animal id): 266 | 32 (≈ 64.8 µM)
isolate (source animal id): 267 | 32 (≈ 64.8 µM)
isolate (source animal id): 268 | > 32
isolate (source animal id): 269 | > 32
isolate (source animal id): 270 | > 32
isolate (source animal id): 271 | 32 (≈ 64.8 µM)
isolate (source animal id): 272 | > 32
isolate (source animal id): 273 | > 32
isolate (source animal id): 274 | > 32
isolate (source animal id): 275 | > 32
isolate (source animal id): 276 | > 32
isolate (source animal id): 277 | > 32
isolate (source animal id): 278 | > 32
isolate (source animal id): 279 | > 32
isolate (source animal id): 280 | > 32
isolate (source animal id): 281 | > 32
isolate (source animal id): 282 | > 32
isolate (source animal id): 283 | > 32
isolate (source animal id): 284 | > 32
isolate (source animal id): 285 | 32 (≈ 64.8 µM)
isolate (source animal id): 286 | > 32
isolate (source animal id): 287 | > 32
isolate (source animal id): 288 | > 32
isolate (source animal id): 289 | > 32
isolate (source animal id): 290 | > 32
isolate (source animal id): 291 | > 32
isolate (source animal id): 292 | > 32
isolate (source animal id): 293 | > 32
isolate (source animal id): 294 | 16 (≈ 32.4 µM)
isolate (source animal id): 295 | > 32
isolate (source animal id): 296 | 32 (≈ 64.8 µM)
isolate (source animal id): 297 | > 32
isolate (source animal id): 298 | > 32
isolate (source animal id): 299 | > 32
isolate (source animal id): 300 | 32 (≈ 64.8 µM)
isolate (source animal id): 301 | > 32
isolate (source animal id): 302 | 32 (≈ 64.8 µM)
isolate (source animal id): 303 | > 32
isolate (source animal id): 304 | > 32
isolate (source animal id): 305 | > 32
isolate (source animal id): 306 | > 32
isolate (source animal id): 307 | 32 (≈ 64.8 µM)
isolate (source animal id): 308 | > 32
isolate (source animal id): 309 | > 32
isolate (source animal id): 310 | > 32
isolate (source animal id): 311 | > 32
isolate (source animal id): 312 | 32 (≈ 64.8 µM)
isolate (source animal id): 313 | > 32
isolate (source animal id): 314 | 32 (≈ 64.8 µM)
isolate (source animal id): 315 | > 32
isolate (source animal id): 316 | > 32
isolate (source animal id): 317 | 16 (≈ 32.4 µM)
isolate (source animal id): 318 | 32 (≈ 64.8 µM)
isolate (source animal id): 319 | 32 (≈ 64.8 µM)
isolate (source animal id): 320 | > 32
isolate (source animal id): 321 | > 32
isolate (source animal id): 322 | > 32
isolate (source animal id): 323 | > 32
isolate (source animal id): 324 | > 32
isolate (source animal id): 325 | > 32
isolate (source animal id): 326 | > 32
isolate (source animal id): 327 | 32 (≈ 64.8 µM)
isolate (source animal id): 328 | > 32
isolate (source animal id): 329 | > 32
isolate (source animal id): 330 | > 32
isolate (source animal id): 331 | > 32
isolate (source animal id): 332 | > 32
isolate (source animal id): 333 | > 32
isolate (source animal id): 334 | > 32
isolate (source animal id): 335 | > 32
isolate (source animal id): 336 | > 32
isolate (source animal id): 337 | > 32
isolate (source animal id): 338 | > 32
isolate (source animal id): 339 | 32 (≈ 64.8 µM)
isolate (source animal id): 340 | > 32
isolate (source animal id): 341 | > 32
